Measured values taken from PubChem BioAssay AID588590 (National Center for Advancing Translational Sciences (NCATS), 2011).
Several values for one entry are separate records, joined by “and”; a condition that tells them apart may be missing. Equal values may be shown once. In all, about 390,000 compounds went through this assay and about 4,000 (1%) were called active. Inconclusive means that the source gave no clear call. Such entries were picked first, then a sample of the others. Calls follow the shape of the dose curve; as a rule, active = well fitted inhibition curve with a large enough effect; inconclusive = small, poorly fitted or top-dose-only effect, or another doubt; inactive = no such curve, though single readings can be large or run the other way. Potencies beside an inconclusive call are fits to weak or partial responses and may not hold up.

Sequences of proteins named here, by UniProt entry; tags and fusion partners are left off. A change or cut given only in a name is not applied to a line headed by its entry.
UniProt Q9UNA4: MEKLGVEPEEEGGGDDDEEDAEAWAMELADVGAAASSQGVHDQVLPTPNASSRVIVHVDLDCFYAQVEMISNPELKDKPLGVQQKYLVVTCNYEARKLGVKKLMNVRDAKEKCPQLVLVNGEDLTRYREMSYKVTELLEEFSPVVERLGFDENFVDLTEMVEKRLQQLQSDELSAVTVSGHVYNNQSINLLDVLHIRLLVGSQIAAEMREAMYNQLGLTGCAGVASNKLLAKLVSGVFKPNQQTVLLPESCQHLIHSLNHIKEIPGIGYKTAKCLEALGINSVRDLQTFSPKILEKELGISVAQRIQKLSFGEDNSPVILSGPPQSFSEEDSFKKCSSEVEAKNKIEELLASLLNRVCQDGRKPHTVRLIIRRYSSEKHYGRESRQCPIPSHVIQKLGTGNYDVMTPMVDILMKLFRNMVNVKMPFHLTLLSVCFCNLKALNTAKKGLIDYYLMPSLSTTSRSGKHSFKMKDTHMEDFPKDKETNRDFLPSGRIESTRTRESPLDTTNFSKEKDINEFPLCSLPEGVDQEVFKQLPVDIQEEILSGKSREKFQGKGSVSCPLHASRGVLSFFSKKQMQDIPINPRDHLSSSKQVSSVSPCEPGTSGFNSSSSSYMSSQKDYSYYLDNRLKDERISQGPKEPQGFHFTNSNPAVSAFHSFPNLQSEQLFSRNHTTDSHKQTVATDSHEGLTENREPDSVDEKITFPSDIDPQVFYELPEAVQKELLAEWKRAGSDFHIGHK

Target: DNA polymerase iota (Homo sapiens) (UniProt Q9UNA4)
Test: qHTS for Inhibitors of Polymerase Iota
Details: Pol iota fluorescent replication assay, 10 min; series mostly up to 115 µM; activity, negative = inhibition: at the top concentration
How it was run: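 Pol iota at 10 nM preincubated 15 min with compounds at room temperature; reaction started with fluorescent substrate, 50 nM final. Fluorescence read kinetically at 0 and 10 min; buffer-only wells as negative control.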
Potency is read from the fitted curve at half-maximal effect.

Potency, inconclusive:
CCn1cc(SCC(=O)NCc2ccc3c(c2)OCO3)c2ccccc21 100 µM [inhibitor, partial curve, poor fit], Cc1cc(OC(=O)c2c(C)cc(O)cc2O)cc(O)c1C(=O)O 79.4 µM [inhibitor, partial curve, poor fit], CC(=O)c1ccc(NC(=O)COCc2cc(-c3ccco3)on2)cc1 89.1 µM [inhibitor, single point], O=C(N/N=C/c1cccnc1)c1ccc([N+](=O)[O-])cc1Cl 89.1 µM [inhibitor, single point], CCCCC(=O)Nc1ccc(C(=O)Nc2ccc(S(=O)(=O)Nc3nccc(C)n3)cc2)cc1 50.1 µM [inhibitor, partial curve, poor fit], COc1ccc(-n2c(C)cc(C(=O)CSc3nnc(-c4ccoc4C)n3C)c2C)cc1 25.1 µM [inhibitor, partial curve, poor fit], COc1cc(C#N)ccc1OCC(=O)NCCC1=CCCCC1 100 µM [inhibitor, single point], O=C(O)c1cc(Cl)c(Cl)cc1C(=O)N(Cc1ccccc1)Cc1ccccc1 70.8 µM [inhibitor, single point], NC(=O)C1CCN(c2cc(Cl)nc(N)n2)CC1 89.1 µM [inhibitor, single point], C=CCn1c(SCc2cc(=O)n3ccsc3n2)nc2scc(C3CC3)c2c1=O 25.1 µM [inhibitor, full curve, poor fit], CCc1ccc(C(=O)Cn2ncc(Cl)c(Cl)c2=O)cc1 22.4 µM [inhibitor, partial curve], CC(=O)c1cccc(S(=O)(=O)Nc2ccc(N3CCOCC3)cc2)c1 22.4 µM [inhibitor, full curve, poor fit], CCCOC(=O)CSC1=C(C#N)C(c2ccccc2OCC)C(C#N)C(=O)N1 (configuration not stated) 7.94 µM [inhibitor, full curve, poor fit], Cc1nn(C)c(C)c1NS(=O)(=O)c1ccc(Cl)s1 3.16 µM [inhibitor, partial curve, poor fit], CCC(C)(C)n1nnnc1C(c1ccc(C)cc1)N(Cc1ccco1)Cc1cccs1 (configuration not stated) 50.1 µM [inhibitor, partial curve, poor fit], Cc1noc(C)c1COc1ccc(C(=O)OCC(=O)N2c3ccccc3NC(=O)C2(C)C)cc1 22.4 µM [inhibitor, full curve, poor fit], CCOc1cccc(C2c3c(-c4cc(C)ccc4O)n[nH]c3C(=O)N2Cc2ccco2)c1 (configuration not stated) 89.1 µM [inhibitor, single point], Cc1cccc(N=C2NC(=O)/C(=C/c3cccn3C)S2)c1C 25.1 µM [inhibitor, partial curve], Fc1cccc(CSc2nc3ccncc3[nH]2)c1 89.1 µM [inhibitor, partial curve, poor fit], CCCCCC(=O)Nc1cccc(C2=NOC3(C2)C[C@H](C(N)=O)N(C(=O)COc2ccc(Cl)cc2)C3)c1 (some centres not stated) 31.6 µM [inhibitor, single point], O=C1C2C(c3ccccc3)CC=CC2C(c2ccc3ccccc3c2)N1Cc1ccccc1 (configuration not stated) 100 µM [inhibitor, partial curve, poor fit], Cc1ccccc1CN1C(=O)C(O)(CC(=O)c2ccncc2)c2ccccc21 (configuration not stated) 14.1 µM [inhibitor, partial curve], CCn1c(N2CCN(C(=S)Nc3ccc(OC)cc3)CC2)nc2ccccc21 39.8 µM [inhibitor, single point], CN(C)CCCn1c(=O)n(CCc2ccccc2)c(=O)c2c3c(sc21)CCCCC3 56.2 µM [inhibitor, partial curve, poor fit], Cc1ccc(S(=O)(=O)N2CCC(C(=O)OCC(=O)N(C)Cc3ccccc3)CC2)cc1C 89.1 µM [inhibitor, partial curve], c1cc(-c2sc(-c3ccncc3)c(-c3ccncc3)c2-c2ccncc2)ccn1 25.1 µM [inhibitor, single point], O=C(Nc1ccccc1OC(F)F)c1ccc(F)cc1 39.8 µM [inhibitor, single point], Cc1c(-c2nc(-c3ccncc3)no2)cccc1[N+](=O)[O-] 12.6 µM [inhibitor, partial curve, poor fit], Cc1ccc(CNC(=O)CCc2nnc3ccc(N4CCC5(CC4)OCCO5)nn23)cc1 79.4 µM [inhibitor, single point], Cc1cc(/C=C(\C#N)C(=O)Nc2ccccc2)c(C)n1-c1ccc(C(=O)O)cc1 70.8 µM [inhibitor, single point], O=C1CCC(C(=O)NCCCn2ccnc2)N1 (configuration not stated) 89.1 µM [inhibitor, single point], O=C(c1cc2ccccc2o1)N1CCN(S(=O)(=O)c2c(F)cccc2F)CC1 4.47 µM [inhibitor, single point], CC(=O)Nc1ccc(NC(=O)CSc2nc3ccccc3nc2N2CCC(C)CC2)cc1 79.4 µM [inhibitor, single point], Nc1ccccc1SCc1csc(-c2ccc(Cl)cc2)n1 14.1 µM [inhibitor, full curve, poor fit], CC(C)C(C)(C#N)NC(=O)CSc1nc2scc(-c3ccco3)c2c(=O)n1-c1ccccc1 (configuration not stated) 35.5 µM [inhibitor, single point], CCCCNC(=O)c1onc(CSc2cccc(C)c2)c1C(=O)O 50.1 µM [inhibitor, single point], N=C1S/C(=C\c2ccc(-c3cccc(Cl)c3)o2)C(=O)N1c1nccs1 20 µM [inhibitor, full curve], Cc1ccc2cc(CN(Cc3nnnn3Cc3ccco3)CC3CCCO3)c(=O)[nH]c2c1C (configuration not stated) 10 µM [inhibitor, full curve, poor fit], O=S(=O)(c1ccc(F)cc1)N1CCN(c2nc(-c3cccs3)nc3ccccc23)CC1 79.4 µM [inhibitor, partial curve, poor fit] and 89.1 µM [inhibitor, single point], O=Cc1ccc(Sc2nnc(-c3ccccc3)o2)c([N+](=O)[O-])c1 14.1 µM [inhibitor, full curve, poor fit], Cc1sc2nc(C3CC3)nc(N3CCN(C(=O)c4ccc(F)cc4)CC3)c2c1C 17.8 µM [inhibitor, partial curve, poor fit], CC(/C=C1\SC(=S)N(NC(=O)c2cccc(O)c2)C1=O)=C\c1ccccc1 39.8 µM [inhibitor, partial curve], N/C(=N/OS(=O)(=O)c1ccc([N+](=O)[O-])cc1)c1ccncc1 11.2 µM [inhibitor, full curve, poor fit], CS(=O)(=O)N1CCc2cc(S(=O)(=O)NCCNS(=O)(=O)c3ccc4c(c3)CCN4S(C)(=O)=O)ccc21 100 µM [inhibitor, single point], COc1ccc(-c2nc3scc(-c4ccc(OC)c(OC)c4)c3c(=O)o2)cc1 89.1 µM [inhibitor, single point], O=C(CC(c1ccccc1)c1ccccc1)NCC(O)c1ccc([N+](=O)[O-])cc1 (configuration not stated) 89.1 µM [inhibitor, single point]

Potency, active:
COCCn1nnnc1C(c1cc2cc(OC)c(OC)cc2[nH]c1=O)N1CCN(c2ccc(O)cc2)CC1 (configuration not stated) 44.7 µM

activity, negative = inhibition, inactive:
COc1cccc(N2CC(NC(=O)c3cccc(OC)c3OC)CC2=O)c1 (configuration not stated) 6.04%, O=C(O)c1cn(C2CC2)c2cc(N3CCN(S(=O)(=O)c4ccc5c(c4)OCCO5)CC3)c(F)cc2c1=O -23.2%, Cc1cccc(CNC(=O)CCCn2c(=O)c3cccn3c3ccc(F)cc32)c1 19.8%, CCn1c(SCC(=O)Nc2oc(-c3ccccc3)c(-c3ccccc3)c2C#N)nnc1-c1ccco1 -5.56%, C/C(=N\NC(=S)Nc1c(C)cccc1C)c1cc2ccccc2o1 -29.6%, CC(Cc1ccccc1)=NNc1ccc([N+](=O)[O-])cc1[N+](=O)[O-] 26.7%, CCC(=O)C1=C(c2cccc(OC)c2)N(C(=O)CC)n2c(nnc2C2CCCCC2)S1 30.9%, CN(C)c1ccc(/C=C2\C=Cc3ccccc32)cc1Cl 7.88%, CC(=O)c1ccc(NC(=O)CSc2nc(-c3cccc(F)c3)nc3c2c(=O)n(C)c(=O)n3C)cc1 -15.8%, O=c1c(-c2ccccc2)[n+]([O-])c2ccccc2n1O 51.2%, CC(=O)N(c1ccc(Cl)cc1)C1SC(=O)N(c2ccc(C)cc2)C1=O (configuration not stated) 7.52%, CN(C)c1ccc(C=C2C(=O)c3ccccc3C2=O)cc1 30.3%, COc1ccc(-c2cc(C(=O)Nc3ccc(S(=O)(=O)Nc4onc(C)c4C)cc3)c3ccccc3n2)cc1OC 0.382%, COc1ccc(S(=O)(=O)NCC(c2ccco2)S(=O)(=O)c2cccs2)cc1C (configuration not stated) 33%, CCOc1ccccc1C(=O)Nc1c(C(=O)Nc2ccc(F)cc2)oc2ccccc12 20%
